Experimental data reported in article PMC10368723.
These are yes or no findings as the source states them, for the method shown. Binding seen in cells or lysates may run through a third protein. Some entries that bind do so weakly or less than the wild type.

Tests used:
LgBit- and SmBit-MET = LgBit- and SmBit-MET (UniProt P08581); assay: split reporter; NanoBit system, LgBit and SmBit on the C-terminus of full-length MET, 293T HGF KO cells, live-cell luminescence before and after purified MET404 (1 µg/ml), up to 45 min
[1] = molecular target: MET404 (endogenous, GSC23 cells) (human (endogenous in GSC23)) (UniProt P08581); assay: co-IP; whole GSC23 cell lysates, immunoprecipitation with anti-MET404 and anti-MET antibodies, immunoblotting with anti-MET404 and anti-MET antibodies (mutual IP)
HA- and flag-tagged MET = HA- and flag-tagged MET (UniProt P08581); assay: co-IP; 293T HGF KO cells cotransfected with HA- and flag-tagged MET; lysates stimulated or not with MET404 (1 µg/ml); immunoprecipitated with anti-HA or anti-flag antibody, immunoblotted with anti-flag or anti-HA antibody

LgBit- and SmBit-MET (from UniProt P08581 25-1390) (receptor)
binding (LgBit- and SmBit-MET): binds

MET receptor (endogenous, GSC23 cells) (from UniProt P08581 25-1390)
binding [1]: binds

HA- and flag-tagged MET (from UniProt P08581 25-1390) (receptor)
binding (HA- and flag-tagged MET): binds
